Results published in PubChem BioAssay AID1671190 (National Center for Advancing Translational Sciences (NCATS), 2021).
“And” between values parts separate entries of the source, which are not always exact repeats. Equal entries are not always repeated. Screen size: about 580,000 compounds; about 6,100 (1.1%) were called active. This list was built around the results that the source calls inconclusive (neither active nor inactive); the mix of calls is not that of the screen. Calls follow the shape of the dose curve; as a rule, active = well fitted inhibition curve with a large enough effect; inconclusive = small, poorly fitted or top-dose-only effect, or another doubt; inactive = no such curve, though single readings can be large or run the other way. Potencies beside an inconclusive call are fits to weak or partial responses and may not hold up.
% is scaled to controls: 0 for no effect and ±100 for the full control effect; potency is read from the fitted curve at half-maximal effect.

The chains behind the UniProt entries cited, without tags or fusion partners. Where a name states a change or a piece, a line headed by the entry shows the natural chain unless it says otherwise.
UniProt P18054: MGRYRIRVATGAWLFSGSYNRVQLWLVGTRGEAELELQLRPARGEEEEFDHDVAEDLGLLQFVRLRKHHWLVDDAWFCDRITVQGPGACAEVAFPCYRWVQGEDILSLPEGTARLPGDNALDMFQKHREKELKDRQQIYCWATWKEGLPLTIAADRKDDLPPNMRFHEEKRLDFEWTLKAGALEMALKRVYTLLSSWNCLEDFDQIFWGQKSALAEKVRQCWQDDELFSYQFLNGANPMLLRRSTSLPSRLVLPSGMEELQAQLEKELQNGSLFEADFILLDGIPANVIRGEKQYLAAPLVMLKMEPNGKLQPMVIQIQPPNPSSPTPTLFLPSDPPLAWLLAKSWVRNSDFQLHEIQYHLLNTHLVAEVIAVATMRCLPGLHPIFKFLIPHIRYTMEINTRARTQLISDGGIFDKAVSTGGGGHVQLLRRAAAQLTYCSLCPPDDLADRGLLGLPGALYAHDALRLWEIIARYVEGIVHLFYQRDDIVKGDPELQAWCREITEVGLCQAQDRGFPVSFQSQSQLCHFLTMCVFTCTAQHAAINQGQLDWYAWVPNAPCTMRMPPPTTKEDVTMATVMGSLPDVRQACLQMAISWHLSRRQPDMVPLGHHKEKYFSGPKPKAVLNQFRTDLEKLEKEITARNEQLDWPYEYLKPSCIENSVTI

The compounds below were run against Polyunsaturated fatty acid lipoxygenase ALOX12 (Homo sapiens) (UniProt P18054) (assay: Primary qHTS assay for inhibitors of human arachidonate 12S-lipoxygenase (ALOX12): Round 2). Details: purified 12hLO, xylenol orange hydroperoxide absorbance; activity change, negative = inhibition: at 108 µM (top of the series) unless noted.
In short: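 Hydroperoxide product was detected by ferrous iron/xylenol orange as the 573 to 405 nm absorbance ratio. Arachidonic acid at 40 uM (final) was turned over for 30 min at room temperature by 150 nM human 12hLO, pH 7.0 Hepes buffer, after 15 min compound preincubation.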
S=C(NCCc1c[nH]c2ccccc12)NC1CCCCC1 was tested, and the Potency was inconclusive: 44.7 µM [inhibitor, partial curve, poor fit]. For CC(C)(C)c1ccc2c(c1)C(c1ccc3c(c1)OCO3)CC(=O)O2 (configuration not stated), the Potency was inconclusive: 112 µM [inhibitor, single point]. CC(CC(=O)Nc1ccc(Cl)cc1)n1ccnc1 (configuration not stated) was tested, and the Potency was inconclusive: 126 µM [inhibitor, single point]. Cc1nc(-c2cccs2)c(CC(=O)N2CCc3ccccc3C2)s1 was tested, and the Potency was active: 8.91 µM. With CC(C)CN(CC(C)C)C(=O)CC1C(=O)NCCN1Cc1cccs1 (configuration not stated) the “activity change, negative = inhibition” value was inactive: 43.7%. In the case of Cc1cccc(-n2c3nc(=O)[nH]c(=O)c-3cc3ccccc32)c1C, the Potency is reported as inconclusive: 15.8 µM [inhibitor, partial curve]. For COC(=O)C1=C(C(=O)OC)[C@@H]2Nc3ccccc3[C@@]23C[C@@H](C(=O)OC)N(C(=O)C2CCC2)C3=N1, the Potency was inconclusive: 89.1 µM [inhibitor, partial curve, poor fit]. CN(C)C(=O)c1ccc(NC(=O)COC(=O)C2CCN(c3ccc(C(F)(F)F)cn3)CC2)cc1 was tested, and the “activity change, negative = inhibition” value was inactive: 2.6%. Cc1ccc(NS(=O)(=O)c2cc(C)c(C(=O)O)s2)cc1C(F)(F)F was tested, and the “activity change, negative = inhibition” value was inactive: -0.81%. For S=c1[nH]nc(C2CC2)n1Cc1ccco1, the Potency was inconclusive: 39.8 µM [inhibitor, partial curve]. In the case of O=C(O)c1ccc(CSc2ncn[nH]2)cc1, the “activity change, negative = inhibition” value is reported as inactive: -11.4% [at 57.4 µM]. Cc1c(CCC(=O)NCCc2ccccc2)c(=O)oc2cc(O)ccc12 was tested, and the Potency was inconclusive: 35.5 µM [inhibitor, partial curve, poor fit]. In the case of C[N+]1(CC(O)c2ccccc2)CCCCCC1 (configuration not stated), the Potency is reported as inconclusive: 56.2 µM [inhibitor, partial curve, poor fit]. With Cc1cccc(CNc2ncc(-c3cccc([N+](=O)[O-])c3)n2C)c1 the Potency was inconclusive: 31.6 µM [inhibitor, single point]. CC(C)C[C@H]1CN=C(Nc2ccccc2)N1CC1CCCCCC1 was tested, and the “activity change, negative = inhibition” value was inactive: -12.4%. In the case of CC(=O)Nc1ccc2nc(-c3ccccn3)[nH]c2c1, the Potency is reported as inconclusive: 25.1 µM [inhibitor, single point]. For CC(C)(Oc1ccc(Cl)cc1)C(=O)NCC(c1cccs1)N1CCOCC1 (configuration not stated), the “activity change, negative = inhibition” value was inactive: -29.9%. In the case of C/C(=N\Nc1ccc(Cl)cc1)c1ccccn1, the Potency is reported as inconclusive: 5.01 µM [inhibitor, full curve, poor fit]. In the case of COc1cc(S(=O)(=O)Nc2ccc(C(C)=O)cc2)ccc1NC(C)=O, the “activity change, negative = inhibition” value is reported as inactive: -42%. With O=C(NCC1(COc2cccnc2)C[C@@H](O)[C@@H](O)C1)C1CC1 (some centres not stated) the Potency was inconclusive: 89.1 µM [inhibitor, partial curve, poor fit]. In the case of Cc1cc(C)c2c(CC(=O)Nc3ccc(F)cc3)coc2c1, the Potency is reported as inconclusive: 158 µM [inhibitor, single point]. In the case of O=c1n(-c2ccc(F)cc2F)nc2n1CCN(Cc1cccs1)C2, the Potency is reported as inconclusive: 8.91 µM [inhibitor, full curve]. For CS(=O)(=O)c1ccc(S(=O)(=O)N2CCC3(CCCNC3)C2)cc1 (configuration not stated), the “activity change, negative = inhibition” value was inactive: 15.2%. With COc1ccc(-c2csc(Nc3ccccn3)n2)cc1OC the Potency was inconclusive: 70.8 µM [inhibitor, partial curve, poor fit] and inconclusive: 79.4 µM [inhibitor, single point]. CCCCCCCCNS(=O)(=O)/C=C/c1cc(C)ccc1CNC(=O)OC(C)(C)C was tested, and the Potency was inconclusive: 28.2 µM [inhibitor, partial curve, poor fit]. In the case of Cc1cccc(N2C(=O)N(Cc3cc(=O)n4ccccc4n3)c3ccccc3S2(=O)=O)c1, the Potency is reported as inconclusive: 0.501 µM [inhibitor, full curve, poor fit]. For COc1ccc(CNC(=O)Cn2nc3c(cc2=O)CCCC3)cc1, the Potency was inconclusive: 100 µM [inhibitor, partial curve, poor fit]. For Cc1cc(C)cc(OCC(O)CN2CCC(CN3C(=O)c4cccc5cccc(c45)C3=O)CC2)c1 (configuration not stated), the Potency was inconclusive: 63.1 µM [inhibitor, partial curve, poor fit]. CCNS(=O)(=O)c1ccc(CCC(=O)NCCC2=CCCCC2)cc1 was tested, and the “activity change, negative = inhibition” value was inactive: -5.69%. CC1(C)NC(=O)N(CC(=O)N[C@@H]2[C@@H]3CCO[C@@H]3[C@@H]2C2CCCC2)C1=O was tested, and the “activity change, negative = inhibition” value was inactive: 3.79%. In the case of O=C(Nc1ccccc1)c1ccc(-c2ccc(Br)cc2)o1, the “activity change, negative = inhibition” value is reported as inactive: -1.14%. With COc1ccccc1CNC(=O)c1cccc2c1C(=O)N(C1CCCCC1)C2 the “activity change, negative = inhibition” value was inactive: 2.95%. With C=CCN(C(=O)Cc1cccs1)c1nc(-c2ccc(S(C)(=O)=O)cc2)cs1 the “activity change, negative = inhibition” value was inactive: -4.93%. Cc1nnc(NC(=O)CSc2nc3c([nH]c4ccccc43)c(=O)n2-c2ccc(Cl)cc2)s1 was tested, and the “activity change, negative = inhibition” value was inactive: -24.1%. In the case of COc1ccccc1N1CCN(CCN2C(=O)C3CCCN3C2=O)CC1 (configuration not stated), the Potency is reported as inconclusive: 11.2 µM [inhibitor, full curve]. With CN1CC(=O)N(C2CCCNC2)Cc2c1ncnc2N(C)Cc1ccc(F)cc1 (configuration not stated) the Potency was inconclusive: 1.6 µM [inhibitor, partial curve, poor fit]. With CC1CCCN(c2ncnc3c2CN(c2ccc(Cl)cc2)C(=O)CN3C)C1 (configuration not stated) the Potency was inconclusive: 28.2 µM [inhibitor, full curve]. In the case of CCOc1ccc(C(=O)N2CCCC3(C2)NC(=O)N(Cc2cccc(Cl)c2)C3=O)cc1 (configuration not stated), the Potency is reported as inconclusive: 20 µM [inhibitor, partial curve, poor fit]. For CC(C)CNC(=O)C(=O)Nc1ccc2cc[nH]c2c1, the Potency was active: 35.5 µM. With COc1ccc(Br)cc1CNC(=O)CCc1ccc2nc(NC(=O)C(C)C)sc2c1 the Potency was inconclusive: 44.7 µM [inhibitor, partial curve, poor fit]. In the case of C[C@@H]1CCCCO[C@H](CN(C)C(=O)Nc2ccc3c(c2)OCO3)[C@H](C)CN([C@@H](C)CO)C(=O)c2cc(NS(=O)(=O)c3ccc(Cl)cc3)ccc2O1, the Potency is reported as inconclusive: 112 µM [inhibitor, single point]. With O=C(Nc1ccccc1C(=O)Nc1ccccn1)c1ccc([N+](=O)[O-])cc1 the Potency was inconclusive: 63.1 µM [inhibitor, partial curve, poor fit].
